The list does not hold the whole screen: it is rich in T/C values a quarter to a half above the control, in often repeated tests (any T/C) and in doses without a T/C. Further doses and runs are listed elsewhere. T/C gives the treated animals as a percentage of the vehicle group. Some entries give survivors of the animals treated and no T/C: the source holds a T/C of zero for them, seemingly a mark for toxic or unscored doses. Some doses without a T/C left all or most animals alive at the check, yet need not have been tolerated: survival well below the control is almost never listed, so the zero probably covers shortened survival too. Counts of survivors are from the toxicity check (mostly the fifth day) where no day follows; animals may have died later. Schedule codes are those of the source, read here as Q, the interval in days (D) or hours (H), X, the number of doses. Some schedules carry Z or #; the key to these is not given. For survival time, this PubChem deposit counts one and a half times the control or more as active, and values a quarter to a half above the control carry no call in these data; other NCI protocols may use other cut-offs.
Test system: L1210 leukemia ip in BDF1 mice, survival T/C
Assay: NCI In Vivo Anticancer Drug Screen. Data for tumor model L1210 Leukemia (intraperitoneal) in B6D2F1 (BDF1) mice
Settings: T/C endpoint: mean survival time, higher T/C = longer survival
[1] = dose: 100.0 mg/kg/injection, schedule: Q01DX009 (ip), vehicle: Klucel (hydroxypropylcellulose) (HPC)
[2] = dose: 400.0 mg/kg/injection, schedule: Q01DX009 (ip), vehicle: Klucel (hydroxypropylcellulose) (HPC)
[3] = dose: 300.0 mg/kg/injection, schedule: Q01DX001 (ip), vehicle: carboxymethylcellulose (CMC)

SMILES: C=NNc1nc2ccccc2s1
- survivor count (dose: 400.0 mg/kg/injection, schedule: Q04DX003 (ip), vehicle: gum acacia): 0 of 6

SMILES: CN(C)C(=O)Sc1c(Cl)cc(S(=O)(=O)F)cc1Cl
- survivor count [1]: 6 of 6
- survivor count [2]: 6 of 6

SMILES: O=Cc1cc([N+](=O)[O-])ccc1Cl
- survivor count (dose: 400.0 mg/kg/injection, schedule: Q04DX003 (ip), vehicle: saline with Tween-80): 5 of 6

SMILES: ON(C(=NC1CCCCC1)c1ccccc1)c1ccccc1
- survivor count (dose: 75.0 mg/kg/injection, schedule: Q01DX001 (ip), vehicle: carboxymethylcellulose (CMC)): 3 of 6
- survivor count (dose: 150.0 mg/kg/injection, schedule: Q01DX001 (ip), vehicle: carboxymethylcellulose (CMC)): 0 of 6
- survivor count [3]: 0 of 6

SMILES: CCN(CC)CCOB(OCCN(CC)CC)OCCN(CC)CC
- survivor count (dose: 400.0 mg/kg/injection, schedule: Q04DX002 (ip), vehicle: saline): 3 of 6

SMILES: CCNC(=O)Nc1ncn[nH]1
- survivor count [3]: 3 of 6

SMILES: Cl[C](Cl)(Cl)[Hg][c]1ccccc1
- survivor count (dose: 25.0 mg/kg/injection, schedule: Q01DX009 (ip), vehicle: Klucel (hydroxypropylcellulose) (HPC)): 3 of 6
- survivor count (dose: 50.0 mg/kg/injection, schedule: Q01DX009 (ip), vehicle: Klucel (hydroxypropylcellulose) (HPC)): 0 of 6
- survivor count [1]: 0 of 6
- survivor count (dose: 200.0 mg/kg/injection, schedule: Q01DX009 (ip), vehicle: Klucel (hydroxypropylcellulose) (HPC)): 1 of 6
- survivor count [2]: 0 of 6

SMILES: CC1=C(C)CC2(C)N(C)CC2(C)C1 (configuration not stated)
- survivor count (dose: 300.0 mg/kg/injection, schedule: Q01DX001 (ip), vehicle: other): 0 of 6

SMILES: O=NN(CCCl)C(=O)N[C@H]1CCC[C@@H](C(=O)O)C1
- T/C (dose: 8.0 mg/kg/injection, schedule: Q01DX001 (ip), vehicle: Klucel (hydroxypropylcellulose) (HPC)): 132 % of control
- T/C (dose: 12.0 mg/kg/injection, schedule: Q01DX001 (ip), vehicle: Klucel (hydroxypropylcellulose) (HPC)): 145 % of control
- survivor count (dose: 90.0 mg/kg/injection, schedule: Q01DX001 (ip), vehicle: Klucel (hydroxypropylcellulose) (HPC)): 8 of 10
- survivor count (dose: 133.0 mg/kg/injection, schedule: Q01DX001 (ip), vehicle: Klucel (hydroxypropylcellulose) (HPC)): 10 of 10
- survivor count (dose: 200.0 mg/kg/injection, schedule: Q01DX001 (ip), vehicle: Klucel (hydroxypropylcellulose) (HPC)): 9 of 10

SMILES: Oc1ccccc1C=NC1CCCCC1.Oc1ccccc1C=NC1CCCCC1.[Co+2]
- survivor count (dose: 400.0 mg/kg/injection, schedule: Q04DX003 (ip), vehicle: Klucel (hydroxypropylcellulose) (HPC)): 3 of 6

SMILES: CC(C)C(=O)Nc1cccnc1
- survivor count (dose: 75.0 mg/kg/injection, schedule: Q01DX001 (ip), vehicle: saline): 3 of 6
- survivor count (dose: 150.0 mg/kg/injection, schedule: Q01DX001 (ip), vehicle: saline): 0 of 6
- survivor count (dose: 300.0 mg/kg/injection, schedule: Q01DX001 (ip), vehicle: saline): 0 of 6

SMILES: CNC(C)=O
- survivor count (dose: 250.0 mg/kg/injection, schedule: Q01DX Z (ip), vehicle: carboxymethylcellulose (CMC)): 10 of 10

SMILES: Cc1cc(S(=O)(=O)c2cc(C)c(O)c(C(=O)O)c2)cc(C(=O)O)c1O
- survivor count (dose: 400.0 mg/kg/injection, schedule: Q04DX002 (ip), vehicle: carboxymethylcellulose (CMC)): 1 of 3

SMILES: O=C(Nc1ccc(Cl)c(Cl)c1)C(Cl)Cl
- survivor count (dose: 200.0 mg/kg/injection, schedule: Q04DX002 (ip), vehicle: Klucel (hydroxypropylcellulose) (HPC)): 3 of 3
